# Counter-ions that a name gives are not always drawn. Some of the results follow. This data set is noisy: repeats of one test often differ as much as different tests do.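 The human kidney-derived cells carry a stably integrated construct of eight TEAD-binding elements driving luciferase, read by luminescence in a drug-repurposing library screen. A compound counts as a hit when its signal is more than five robust Z scores above the plate mean.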
# Tested on: HEK293A TEAD-LUC reporter
# Assay: TEAD-luciferase reporter activity (YAP activation), robust Z score vs plate; higher = stronger YAP/TEAD activation
# Conditions: 24 h
SMILES,TEAD-luciferase reporter activity (compound concentration: 200 nM),TEAD-luciferase reporter activity (compound concentration: 2 uM),TEAD-luciferase reporter activity (compound concentration: 10 uM)
CCNCCCCNC[C@@H]1C[C@H]1CNCCCCNCC,inactive: -0.945,inactive: -1.29,inactive: -1.47
CN(C)CCCN1C(=O)C2C(C1=O)[C@H]1C[C@@H]2CC1OC(=O)c1c[nH]c2ccccc12 (stereo partly specified),inactive: -0.898,inactive: -1.96,inactive: -0.718
CC[C@H]1OC(=O)C[C@@H](O)[C@H](C)[C@@H](OC2OC(C)[C@@H](O)C(N(C)C)[C@H]2O)[C@@H](CC=O)C[C@@H](C)C(=O)/C=C/C(C)=CC1CO (stereo partly specified) [mycaminosyl tylonolide],inactive: -1.95,inactive: -0.319,inactive: 2.53
CN(C)CCCC(=O)N1Cc2ccccc2CC2(CCCCN2Cc2ccccc2)C1 (stereo unspecified),active: 10.2,–,inactive: -0.572
COc1cc2c(cc1OC)C(C)N(S(C)(=O)=O)CC2 (stereo unspecified),inactive: -0.33,inactive: 1.34,inactive: 1.59
CCc1cn([C@H]2O[C@H](CO)[C@@H](O)[C@@H]2F)c(=O)[nH]c1=O,inactive: 0.577,inactive: -1.37,inactive: -1.05
COc1cc(/C=C2/C(C)=C(CC(=O)NCc3ccccc3)c3cc(F)ccc32)cc(OC)c1OC,inactive: 0.949,inactive: 0.121,active: 6.02
CCCCCCCCCCCCCCCC(=O)OCC(COC(=O)c1cccnc1)OC(=O)CCCCCCCCCCCCCCC (stereo unspecified),inactive: -1.35,inactive: 0.862,inactive: -0.198
COc1nsnc1NS(=O)(=O)c1ccc(N)cc1,inactive: -0.423,inactive: -1.62,inactive: 2.14
O=C1NC(=O)C(c2ccccc2)(c2ccccc2)N1 [phenytoin sodium],inactive: -1.63,inactive: 0.947,inactive: 1.13
NC(=O)c1cc[n+](CC2=C(C(=O)[O-])N3C(=O)[C@@H](NC(=O)[C@@H](c4ccccc4)S(=O)(=O)[O-])[C@H]3SC2)cc1 [Cefsulodin sodium salt hydrate],inactive: 0.441,–,inactive: 0.599
NC(=O)c1cc[n+](CC2=C(C(=O)[O-])N3C(=O)[C@@H](NC(=O)[C@@H](c4ccccc4)S(=O)(=O)[O-])[C@H]3SC2)cc1 [cefsulodin],–,inactive: 0.374,–
O=C(NCCCOc1ccc2[nH]c(=O)ccc2c1)N(C1CC1)[C@@H]1CCCC[C@H]1O,inactive: -0.584,inactive: -2.04,active: 7.11
O=C(N/N=C/C=C/c1ccc([N+](=O)[O-])o1)c1ccc([N+](=O)[O-])s1,inactive: -1.06,inactive: -0.336,inactive: 1.75
CCC[C@@H]1O[C@@H]2C[C@H]3[C@@H]4C[C@H](F)C5=CC(=O)CCC5(C)[C@@]4(F)[C@@H](O)CC3(C)C2(C(=O)CO)O1 (stereo partly specified),inactive: 3.97,inactive: 1.53,inactive: 0.504
N=C(N)Nc1ccc(CNC(=O)N2CCN(C(=O)O[C@@H]3CO[C@H]4[C@@H]3OC[C@H]4OC(=O)N3CCN(C(=O)NCc4ccc(NC(=N)N)cc4)CC3)CC2)cc1,inactive: -0.49,inactive: 0.785,inactive: -0.961
O=c1cc(N2CCOCC2)oc2c(-c3ccccc3)cccc12,inactive: -2.15,–,inactive: -0.85

# Record cards (already shown).
# O=C(NCCCOc1ccc2[nH]c(=O)ccc2c1)N(C1CC1)[C@@H]1CCCC[C@H]1O is listed with TEAD-luciferase reporter activity (compound concentration: 200 nM): inactive: -0.584; TEAD-luciferase reporter activity (compound concentration: 2 uM): inactive: -2.04; TEAD-luciferase reporter activity (compound concentration: 10 uM): active: 7.11
# CCNCCCCNC[C@@H]1C[C@H]1CNCCCCNCC is listed with TEAD-luciferase reporter activity (compound concentration: 200 nM): inactive: -0.945; TEAD-luciferase reporter activity (compound concentration: 2 uM): inactive: -1.29; TEAD-luciferase reporter activity (compound concentration: 10 uM): inactive: -1.47
# COc1nsnc1NS(=O)(=O)c1ccc(N)cc1 is listed with TEAD-luciferase reporter activity (compound concentration: 200 nM): inactive: -0.423; TEAD-luciferase reporter activity (compound concentration: 2 uM): inactive: -1.62; TEAD-luciferase reporter activity (compound concentration: 10 uM): inactive: 2.14

# Additional results:

SMILES,TEAD-luciferase reporter activity (compound concentration: 200 nM),TEAD-luciferase reporter activity (compound concentration: 2 uM),TEAD-luciferase reporter activity (compound concentration: 10 uM)
COc1ccc(C(=O)Nc2c(Cl)c[n+]([O-])cc2Cl)c2ccc(C(F)(F)F)nc12,inactive: -0.177,inactive: -0.888,inactive: 1.1
CNCCC=C1c2ccccc2CCc2ccccc21,inactive: -0.801,–,inactive: -1.22
CNCCC=C1c2ccccc2CCc2ccccc21 [Nortriptyline hydrochloride],–,inactive: -1.75,–
CCc1nc2ccc(NC(=O)N(C)C(C)C)cc2c(=O)n1Cc1ccc(-c2ccccc2S(=O)(=O)NC(=O)OCCC2CC2)cc1F,inactive: -1.74,inactive: 0.973,active: 13.3
CS(=O)(=O)Nc1ccc2oc3c(OC(F)F)ccc(C(=O)Nc4c(Cl)cncc4Cl)c3c2c1 [Oglemilast],inactive: 1.8,inactive: 0.758,inactive: -0.146
O=c1[nH]c(=S)n(C[C@H]2CCCO2)c2[nH]cnc12,inactive: -0.467,inactive: -0.217,inactive: -0.773
CC(C)(Cc1ccccc1)NCC(O)c1ccc(O)c(NS(C)(=O)=O)c1 (stereo unspecified) [zinterol],inactive: -0.509,inactive: -0.137,inactive: -0.699
CCN(CC)CCOc1ccc([C@H]2C[C@]3(C)[C@@H](O)CC[C@H]3[C@@H]3CCc4c(ccc(O)c4Cl)[C@H]32)cc1,inactive: -0.938,inactive: -1.64,inactive: 3
C[C@]12CCC3=C4CCC(=O)C=C4CC[C@H]3[C@@H]1CC[C@@]2(O)CC#N [Dienogest],inactive: -0.71,inactive: -0.579,inactive: -0.309
O=C1c2ccccc2-n2c1nc1ccccc1c2=O [Tryptanthrin],inactive: 0.0524,inactive: -0.251,inactive: 4.35
COc1ccccc1N1CCN(C(=O)c2cccc3c(=O)c(C)c(-c4ccccc4)oc23)CC1,inactive: -1.99,inactive: -0.238,inactive: -2.97
O=C(O)c1cccc(C[C@@H]2COc3ccc(OCc4nc5cc(F)ccc5s4)cc3[C@@H]2O)c1,inactive: -0.202,inactive: -0.0031,inactive: 3.08
CCNCc1cncc(-c2ccc3c(c2)/C(=C2/N=c4cc(F)cc(F)c4=N2)NN3)c1C,inactive: -1.95,inactive: -2.58,inactive: 0.298
COc1ccc(C(Cl)=C(c2ccc(OC)cc2)c2ccc(OC)cc2)cc1,inactive: -1.61,inactive: 0.0303,inactive: -0.693
N[C@H]1CCN(c2nc3c(cc2F)c(=O)c(C(=O)O)cn3C2CC2)C1,inactive: -0.853,inactive: -1.05,inactive: -0.692
COCCOCCOCCOCCOC(=O)OC[n+]1ccc(N/C(=N/C#N)NCCCCCCOc2ccc(Cl)cc2)cc1 [Teglarinad chloride],inactive: 2.42,inactive: 4.36,active: 10.8
